Measured values reported in doi:10.1101/2021.05.07.442963.
These are yes or no findings as the source states them, for the method shown. Binding seen in cells or lysates may run through a third protein. Some binding calls cover weakened binding; strength is not graded here.

Molecular target: T1, ARS2 (mouse (endogenous in FL5.12.xL)) (UniProt Q99MR6)
T1 sequence: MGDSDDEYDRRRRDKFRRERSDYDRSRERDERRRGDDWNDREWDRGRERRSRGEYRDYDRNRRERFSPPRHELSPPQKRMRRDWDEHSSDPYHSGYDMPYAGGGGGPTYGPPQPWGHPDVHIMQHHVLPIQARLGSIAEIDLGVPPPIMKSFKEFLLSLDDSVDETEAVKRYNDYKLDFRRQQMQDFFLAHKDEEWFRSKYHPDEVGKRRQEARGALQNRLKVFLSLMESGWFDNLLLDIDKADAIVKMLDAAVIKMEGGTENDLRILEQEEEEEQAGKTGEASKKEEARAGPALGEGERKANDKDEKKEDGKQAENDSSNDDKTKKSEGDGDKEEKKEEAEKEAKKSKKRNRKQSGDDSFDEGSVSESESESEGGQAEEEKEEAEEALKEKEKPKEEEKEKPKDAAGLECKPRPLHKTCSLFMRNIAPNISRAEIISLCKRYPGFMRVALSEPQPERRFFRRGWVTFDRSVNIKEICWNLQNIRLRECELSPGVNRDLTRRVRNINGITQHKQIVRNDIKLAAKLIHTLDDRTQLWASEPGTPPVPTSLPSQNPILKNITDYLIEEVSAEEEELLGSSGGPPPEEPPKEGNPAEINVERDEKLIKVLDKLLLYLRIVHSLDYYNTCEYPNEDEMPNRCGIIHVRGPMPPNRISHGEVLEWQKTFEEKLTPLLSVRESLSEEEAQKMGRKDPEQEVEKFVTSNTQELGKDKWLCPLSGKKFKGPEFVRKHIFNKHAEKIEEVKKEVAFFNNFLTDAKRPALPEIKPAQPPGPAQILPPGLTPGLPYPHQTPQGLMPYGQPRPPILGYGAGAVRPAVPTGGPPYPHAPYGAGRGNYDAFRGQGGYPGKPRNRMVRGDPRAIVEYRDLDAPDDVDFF
Assay: co-IP

binding: binds
B1: SRSF3 (protein, UniProt P84104 1-164)
chain: MHRDSCPLDCKVYVGNLGNNGNKTELERAFGYYGPLRSVWVARNPPGFAFVEFEDPRDAADAVRELDGRTLCGCRVRVELSNGEKRSRNRGPPPSWGRRPRDDYRRRSPPPRRRSPRRRSFSRSRSRSLSRDRRRERSLSRERNHKPSRSFSRSRSRSRSNERK
